In paper PMC6202051, “The DWORF micropeptide enhances contractility and prevents heart failure in a mouse model of dilated cardiomyopathy” (eLife, 2018):
No constants are given. Whether binding was seen depends on the method and setting. Binding seen in cells or lysates may run through a third protein. Some results given as binding are weak or reduced against the parent protein; the word gives no strength. Tags and fused reporters may be left off the sequences shown. Each block holds one binder with its values, some of them ahead of it.

Chains of the proteins cited; added tags and fusions are not shown. Lines headed by an entry give the natural chain unless they say otherwise; changes in a name come on top. A line that says so, or that is headed by a name, gives the form on record, which may keep a tag or linker.
Myc-tagged SERCA2a (O55143, form named): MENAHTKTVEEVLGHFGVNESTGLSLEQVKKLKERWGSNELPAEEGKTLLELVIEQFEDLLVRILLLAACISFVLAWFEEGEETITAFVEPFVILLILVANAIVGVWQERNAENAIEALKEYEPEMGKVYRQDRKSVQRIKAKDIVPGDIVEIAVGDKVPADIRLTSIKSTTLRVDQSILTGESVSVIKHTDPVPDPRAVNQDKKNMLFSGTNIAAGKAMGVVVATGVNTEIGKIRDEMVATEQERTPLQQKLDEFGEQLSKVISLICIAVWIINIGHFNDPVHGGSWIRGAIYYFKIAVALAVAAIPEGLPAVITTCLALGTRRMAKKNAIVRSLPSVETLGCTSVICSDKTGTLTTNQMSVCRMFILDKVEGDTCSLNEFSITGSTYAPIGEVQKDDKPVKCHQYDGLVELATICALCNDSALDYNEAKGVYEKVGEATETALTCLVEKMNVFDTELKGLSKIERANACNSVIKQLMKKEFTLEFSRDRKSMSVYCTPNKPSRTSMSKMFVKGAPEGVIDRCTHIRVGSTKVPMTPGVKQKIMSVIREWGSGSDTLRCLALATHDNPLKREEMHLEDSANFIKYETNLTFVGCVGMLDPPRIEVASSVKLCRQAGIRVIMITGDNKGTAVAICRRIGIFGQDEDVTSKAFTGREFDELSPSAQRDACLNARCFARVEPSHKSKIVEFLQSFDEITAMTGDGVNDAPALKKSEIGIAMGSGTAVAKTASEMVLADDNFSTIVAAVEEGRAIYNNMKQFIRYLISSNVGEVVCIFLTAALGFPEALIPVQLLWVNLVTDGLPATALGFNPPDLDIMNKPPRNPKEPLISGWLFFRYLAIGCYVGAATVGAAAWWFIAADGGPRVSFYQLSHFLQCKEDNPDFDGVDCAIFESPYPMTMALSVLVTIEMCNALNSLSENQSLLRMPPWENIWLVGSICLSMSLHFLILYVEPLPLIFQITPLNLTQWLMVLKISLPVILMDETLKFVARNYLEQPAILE

Legend:
[1] = target: mCerulean (Cer)-SERCA2a (UniProt O55143); experiment: FRET or BRET; acceptor sensitization FRET microscopy in live transfected AAV-293 cells (Cer excitation, YFP emission); FRET efficiency against YFP intensity of ~1000 cells per experiment, hyperbolic fit; apparent Kd in arbitrary units
[2] = target: T1, yellow fluorescent protein (YFP)-PLN, P61014; experiment: FRET or BRET; progressive acceptor photobleaching of YFP in live transfected AAV-293 cells; donor against acceptor fluorescence, a linear relationship taken as a 1:1 complex; details: remark: other sources report otherwise
T1 chain: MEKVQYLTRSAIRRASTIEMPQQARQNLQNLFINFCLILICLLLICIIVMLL

[3] = target: Myc-tagged SERCA2a (UniProt O55143); experiment: co-IP; HEK293 cells co-transfected with equal amounts of Myc-SERCA2a and HA-PLN (1 ug) and increasing amounts of HA-DWORF or control plasmid; whole cell lysates in CoIP buffer (0.1% NP-40, 150 mM NaCl); anti-Myc immunoprecipitation on Dynabeads, HA western blot

B1: yellow fluorescent protein (YFP)-PLN (protein, UniProt P61014 1-52)
chain: MEKVQYLTRSAIRRASTIEMPQQARQNLQNLFINFCLILICLLLICIIVMLL
binding [1]: binds

binding [2]: binds
B2: yellow fluorescent protein (YFP)-PLN, P61014 1-52 (protein)
chain: MEKVQYLTRSAIRRASTIEMPQQARQNLQNLFINFCLILICLLLICIIVMLL

binding [3]: binds
B3: HA-tagged PLN (protein, UniProt P61014 1-52)
chain: MEKVQYLTRSAIRRASTIEMPQQARQNLQNLFINFCLILICLLLICIIVMLL
